Some results were stated once for a whole list of compounds, not compound by compound.
System: Normal human dermal fibroblasts (HNDF)
Test: Myofibroblast transition assay (MFT), aSMA immunofluorescence
Type: cell-based
Conditions: relative to control
Text: The myofibroblast transition (MFT) assay determines the effect of the peptide on inhibiting the transition of fibroblasts to myofibroblasts. The extracellular matrix produced by myofibroblasts may be produced in excess and may not be remodeled during tissue healing, leaving behind the fibrous connective tissue that forms a scar. Thus, the ability to regulate the degree of MFT may enable control of scarring. To determine if the peptides provided herein affect MFT, the following assay was performed.
Normal human dermal fibroblasts (HNDF) were cultured in high glucose Dulbecco's modified eagle medium (DMEM) supplemented with 10% fetal bovine serum (FBS) and 5 ml of 10,000 units of penicillin/streptomycin. Cells were cultured on 10 cm plates with media changes every 2 days. Cells were passaged in 0.25% Trypsin/EDTA after achieving 80% confluency.
To induce myofibroblast transition (MFT), normal human dermal fibroblasts (HNDFs) were split from 1-10 cm plates to 5-96 well plates. Cells were then allowed to grow the next day. The following day, cells were serum starved (1% FBS in DMEM) for 4 hours prior to adding 20 ng/ml of TGF-Beta to all wells of the plate. 1000 μM of Vactosertib (TEW-7197/EW-7197) was added to serve as a positive control and different concentrations of peptides were added to serve as the test articles. The cells were then exposed to the compounds for 5 more days before fixation.
The cells were fixed in paraformaldehyde (PFA) for 10-15 minutes, then washed 2× in PBS. Cells were blocked in 4% BSA for 30 minutes at 23° C. Cells were stained with the primary alpha-smooth muscle actin (aSMA) antibody (1:100) for 1 hour at 23° C. or left out at 4° C. overnight. Cells were rinsed 2× with BSA and then the secondary antibody mix was added: Alexa 488 (1:500) and DAPI (1:1000) for 30 min at 23° C. or 1 hr at 4° C. The plates were covered during staining, then rinsed 2× in BSA and stored in PBS.
Plates were imaged using the Celigo Imaging Cytometer by Nexcelcom. The ratio of fluorescent expression of alpha-smooth muscle actin (aSMA) and DAPI were quantified to determine the amount of aSMA/cell.
The change (normalized to the control) in MFT for each concentration is shown along with the p value for all experiments relative to the control of no peptide.

Row | Substance | significant inhibition of MFT
1 | FAYCRSKGLRKRLRKFRNK [MBb32] | at least 25%
2 | LKEKKPAKEK [PC-1] | at least 25%
3 | RVIWA [MBb4.2] | at least 25%
4 | WVSGL [MBb7] | at least 25%

System: HNDF fibroblasts
Test: Fibroblast cell proliferation (EDU)
Type: cell-based, human
Conditions: not given
Experimental: Fibroblast proliferation is an important component of tissue regeneration. To determine if the peptides of the disclosure affect fibroblast proliferation, HNDFs were grown as described above, and split from 1-10 cm plates to 4-24 well plates. After allowing the cells to grow overnight, normal media was replaced with starvation media (1% FBS in DMEM). 10 ng/ml of fibroblast growth factor (FGF) served as a positive control, untreated cells (starvation media only) served as a negative control, and different concentrations of the peptides as test articles. The cells were then exposed to the peptides for a day before adding 5-Ethynyl-2′-deoxyuridine (EDU) EDU signal marker for 2-4 hours to assess DNA synthesis and cell proliferation.
The fibroblasts were fixed in PFA for 10-15 minutes, then washed 2× in 4% BSA. 0.1% Triton X-100 in PBS was added for 20 min at 23° C. to permeabilize the cells. The cells were washed 2× in 4% BSA and the following reaction mixture was added: 0.25% of 488 iFlour azide, 4% CuSO, 10% Sodium Ascorbate in PBS. The cells were incubated at 23° C. for 30 minutes. The cells were washed in BSA 1× and in PBS 1×. The cells were also stained for DAPI for 30 minutes at 23° C. The cells were washed 2× in PBS and maintained in PBS.
Plates were imaged using the Celigo Imaging Cytometer by Nexcelcom. The amount of fluorescent expression of EDU and DAPI were quantified to determine the amount of EDU/field (and thus the percentage of fibroblast cells dividing).
Because the concentration required to induce an effect with each peptide was not known, each peptide was tested in 3 concentrations: 10 ng/ml, 100 ng/ml, and 1000 ng/ml as shown in Table 4A and Table 4B.

Row | Substance | increase of fibroblast proliferation relative to the control
5 | ERDLK [MBb14] | more than 50%
6 | FEDVIAEP [MBa5] | more than 50%
7 | IDFEDVIAEP [MBa4] | more than 50%
